# From patent US20260226114A1, “PEPTIDE FOR THE TREATMENT OF DISEASES ASSOCIATED WITH APOLIPOPROTEIN AI OR TRANSTHYRETIN INVOLVEMENT” (CENTRO DE INGENIERÍA GENÉTICA Y BIOTECNOLOGÍA, priority 2022, published 2026)
# Amino acid sequences for entries named in this document (tags omitted). Residues count along the entry.
# UniProt P02647, 19-267: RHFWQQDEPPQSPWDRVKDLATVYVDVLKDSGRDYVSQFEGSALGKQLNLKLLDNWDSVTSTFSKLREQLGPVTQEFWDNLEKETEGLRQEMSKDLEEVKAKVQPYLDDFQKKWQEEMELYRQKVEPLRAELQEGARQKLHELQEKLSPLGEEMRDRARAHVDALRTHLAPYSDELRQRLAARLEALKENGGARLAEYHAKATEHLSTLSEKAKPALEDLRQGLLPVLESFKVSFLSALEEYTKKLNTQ
# Like-named read-outs stand apart in the source and are kept apart here. Part of at least one peptide drawing is inferred or uncertain, most often the ends. No end group written: not given here.
# Legend:
# [1] = system: patients with ischemic heart disease; assay: Treatment of patients with ischemic heart disease and high blood pressure; type: in vivo, human; settings: six patients, 1 mg every 12 hours intravenously for seven days plus standard therapy
# Description: It is exemplified with the results of six patients. They presented ischemic heart disease, associated with high blood pressure, which produced a state of severity. They were treated in the Intermediate Care Unit (IMCU) of the “Luis Diaz Soto” hospital in Havana. These patients were treated with a pharmaceutical composition comprising the peptide identified as SEQ ID NO: 1, so that a peptide dose of 1 mg every 12 hours was administered intravenously for seven days. In addition, they received the standard therapy needed for these cases.
# TTR [2] = target: T1, TTR (Homo sapiens, UniProt P02766); assay: Western blot immunoidentification of peptide bound to plasma proteins with polyclonal antibodies against the peptide; type: binding; settings: membrane incubated with peptide 200 μg/mL, three hours at 37° C.
# T1 construct: TTR is a tetrameric protein present in plasma; from tissue; host or cells: human plasma of a healthy donor
# RA in two animal models = settings: cited from earlier work
# Treg cell population = settings: BALB/c mice; cited from earlier work
# [3] = system: patients with type II diabetes; assay: Treatment of patients with decompensated type II diabetes; type: in vivo, human
# Description: It is exemplified with ten patients who had diabetic decompensation and reached a state of severity, that let them to be treated in the ICU of the hospital “Luis Díaz Soto” in Havana. Five of these patients were treated with a pharmaceutical composition comprising the peptide identified as SEQ ID NO: 1, so that a peptide dose of 1 mg every 12 hours was administered intravenously for eight days. In addition, they received the standard therapy needed for these cases.
# Apo-AI [4] = target: T2, Apo-AI (Homo sapiens, UniProt P02647); assay: Western blot immunoidentification of peptide bound to plasma proteins with polyclonal antibodies against the peptide; type: binding; settings: membrane incubated with peptide 200 μg/mL, three hours at 37° C.
# T2 construct: blood was collected from a healthy donor; from tissue; host or cells: human plasma of a healthy donor
# [5] = system: regulatory T cells (Tregs); settings: cited from earlier work
# Apo-AI [6] = target: T2, Apo-AI; assay: Affinity chromatography of human plasma on matrix-peptide, SDS-PAGE and ESI-MS identification of bound protein X1; type: binding; settings: plasma of a healthy donor, 3 hours incubation, control matrix without peptide
# TTR [7] = target: T1, TTR; assay: Affinity chromatography of human plasma on matrix-peptide, SDS-PAGE and ESI-MS identification of bound protein X2; type: binding; settings: plasma of a healthy donor, 3 hours incubation, control matrix without peptide
sequence,measurement,setting,value
SIDLKDKYKNIGAKLVQLVANNTNEEA [SEQ ID NO: 1],clinical outcome,[1],"recovered, and were discharged"
same,blood cholesterol levels,[1]; day 7 vs time 0,blood cholesterol levels decreased
same,interaction with TTR band (immune recognition by antibody vs peptide),TTR [2],interacts with these two proteins
same,inhibition of RA,RA in two animal models,efficiently inhibited RA
same,Treg cell population,Treg cell population,induced a significant increase in the Treg cell population
same,cholesterol levels,"[3]; five patients, 1 mg every 12 hours intravenously for eight days plus standard therapy, day 8 vs time 0",cholesterol levels remain constant
same,recovery compared to patients who received standard treatment alone,[3]; patients with decompensated type II diabetes,very rapid recovery
same,interaction with Apo-AI band (immune recognition by antibody vs peptide),Apo-AI [4],interacts with these two proteins
same,frequency of regulatory T cells (Tregs),[5]; peripheral blood mononuclear cells from healthy donors,not in healthy donors
same,frequency of regulatory T cells (Tregs),[5]; peripheral blood mononuclear cells from patients with rheumatoid arthritis,increased the frequency of regulatory T cells
same,"plasma protein binding to the matrix-bound peptide (protein X1, identified as Apo-AI)",Apo-AI [6],two plasma proteins were detected that bind
same,"plasma protein binding to the matrix-bound peptide (protein X2, identified as TTR)",TTR [7],two plasma proteins were detected that bind
